Experiment: Fragrance Fidelity Index (FFI) of test material on fabric swatch, expert graders
[1] = test material at 10 ppm on fabric swatch
[2] = test material at 50 ppm on fabric swatch

CCC(=O)OC1CC2C3C=CCC3C1C2(C)C (centres unmarked)
FFI [1]: 0 | FFI [2]: 0

CC1CCC2(C(C)C)CC(C)OC2C1 (centres unmarked)
FFI [2]: 0.3

CC1(C)CCc2ccc(CCC=O)cc21
FFI [1]: 0 | FFI [2]: 0.5

— US20190029928A1, “Fibrous Structures Comprising Malodor Reduction Compositions” (The Procter & Gamble Company, priority 2017, published 2019)
